Measured values: patent US5563044A (Hoffmann-La Roche Inc., priority 1995, dated 1996)

Test: general procedure: Boc solid-phase peptide synthesis; Boc-Leu-phenylacetamidomethyl (PAM)-resin, 0.33 mmol/g; BOP
Conditions: coupling step

GRF(1-44)-NH2
step yield (by analytical HPLC at 3.5 h): 60% | step yield (on GRF(1-43)-OH): 37%
